Laboratory results: PubChem BioAssay AID504784 (Drosophila RNAi Screening Center, 2011)

Test: 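Genome-wide knock-down for genes giving too much or too little stored lipid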 (primary screen)
Cells: Drosophila Kc167 embryonic cells
Knock-down reagent: long dsRNA against Drosophila genes, about 250 ng dsRNA per well
Time to read-out: 4 days
Challenge: cells fed 400 µM oleic acid bound to BSA
Read-out: 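Cells imaged and segmented; ratio of lipid droplet area to nuclear area, log-transformed, then normalised as a B-score over the screen; higher means more stored lipid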
Reading the numbers: droplet/nuclear area B-score: higher = more stored lipid (overstorage)
The screen tested about 17,000 reagents; below is an unselected part of those that have a named target and a result. 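Each column is one replicate's B-score; the combined score over replicates was not deposited, so single values may mislead.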 A plus sign joins genes that one reagent is predicted to hit.

no.	gene	dsRNA	droplet/nuclear area B-score, replicate 1	droplet/nuclear area B-score, replicate 2	droplet/nuclear area B-score, replicate 3
1	CG15432	DRSC00447	1.02	-0.0682	
2	Xport-A + Xport-B	DRSC15586	-0.126	-1.41	
3	CG14095	DRSC10098	0.542	0.264	
4	Or47b (Odorant receptor 47b)	DRSC07492	0.0766	1.85	
5	Sec24AB (Secretory 24AB)	DRSC06478	-0.00239	1.14	
6	LpR1 (Lipophorin receptor 1)	DRSC15665	0.677		
7	LpR1 (Lipophorin receptor 1)	DRSC15669	-0.741	-0.00156	
8	LpR1 (Lipophorin receptor 1)	DRSC15670	-0.126	-0.597	
9	cu (curled)	DRSC15643	0.0823	0.403	
10	cu (curled)	DRSC15648	-0.63	0.189	
11	CG6707	DRSC10697	0.0908	0.125	
12	Elk (Eag-like K[+] channel)	DRSC07608	-1.44	1.62	
13	RpL13 (Ribosomal protein L13)	DRSC03416	4.01	2.84	
14	Galk (Galactokinase)	DRSC10500	-0.24	-0.0687	
15	CG8369	DRSC16413	-0.9	0.333	
16	gw (gawky)	DRSC17135	-0.186	0.685	
17	gw (gawky)	DRSC17160	-0.975	0.612	
18	CG33290	DRSC11493	0.11	-0.262	
19	Pldn (Pallidin)	DRSC10137	-1.39	-2.48	
20	CG6927	DRSC18407	-0.185	-0.651	-1.1
21	CG7650	DRSC10898	-2.27	-1.08	-0.163
22	Ubc10 (Ubiquitin conjugating enzyme 10)	DRSC07568	2.75	-2.57	
23	yellow-e	DRSC12966	0.024	0.8	
24	yellow-e	DRSC16563	-1.67	-0.0222	
25	js (jiangshi)	DRSC15004	-0.162	-0.0189	
26	CG16826	DRSC02527	-3.78	1.7	
27	Acp24A4 (Accessory gland protein 24A4)	DRSC22352	-0.341	0.281	
28	CG1299	DRSC08300	-0.677	-0.669	
29	CG8066	DRSC16374	-0.744	-2.74	
30	CG12129	DRSC06105	-0.0303	0.996	
31	Cubn2 (Cubilin 2)	DRSC10561	1.17	-0.115	
32	Cubn2 (Cubilin 2)	DRSC22044	0.0269	1	
33	Dph3 (Diphthamide biosynthesis 3)	DRSC14923	1.24	-1.1	
34	Bdbt (Bride of doubletime)	DRSC15218	0.69	0.299	
35	CG14125	DRSC10129	2.31	0.435	
36	CG6951	DRSC10755	2.49	0.0896	

An excerpt from above, reduced to “droplet/nuclear area B-score, replicate 1”:
CG6707 [DRSC10697]	0.0908
Elk (Eag-like K[+] channel) [DRSC07608]	-1.44
RpL13 (Ribosomal protein L13) [DRSC03416]	4.01
Galk (Galactokinase) [DRSC10500]	-0.24
CG8369 [DRSC16413]	-0.9
gw (gawky) [DRSC17135]	-0.186

Continued.
no.	gene	dsRNA	droplet/nuclear area B-score, replicate 1	droplet/nuclear area B-score, replicate 2	droplet/nuclear area B-score, replicate 3
37	p24-1 (p24-related-1)	DRSC19827	2.43	2.2	0.393
38	CG4613	DRSC10435	-0.129	1.58	
39	Ir94h (Ionotropic receptor 94h)	DRSC15232	-1.84	-0.597	
40	CG7443	DRSC16244	-0.502	-1.16	
41	Wnt2 (Wnt oncogene analog 2)	DRSC05160	-0.465	-0.00849	
42	Wnt2 (Wnt oncogene analog 2)	DRSC07574	0.213	-0.339	
43	CG11342	DRSC08175	0.887	2.38	
44	CG8036	DRSC16366	-1.27	-0.745	
45	CG6800	DRSC16119	1.09	-0.205	
46	Spn28Dc (Serpin 28Dc)	DRSC03029	2.94	1.58	
47	CG14218	DRSC19575	-2.32	-1.75	0.591
48	CG18814	DRSC10347	-0.802	0.817	
49	en (engrailed)	DRSC07609	0.426	-0.121	
50	CG4991	DRSC19928	-1.13	-0.0552	
51	Ca-alpha1T (Ca[2+]-channel protein alpha[[1]] subunit T)	DRSC17842	-0.823	-1.87	
52	Ca-alpha1T (Ca[2+]-channel protein alpha[[1]] subunit T)	DRSC18103	0.101	0.762	3.19
53	Ca-alpha1T (Ca[2+]-channel protein alpha[[1]] subunit T)	DRSC18356	-1.3	-0.633	
54	Ca-alpha1T (Ca[2+]-channel protein alpha[[1]] subunit T)	DRSC18357	0.0112	0.224	
55	Ca-alpha1T (Ca[2+]-channel protein alpha[[1]] subunit T)	DRSC21430	0.125	0.355	
56	CG3528	DRSC00611	1.31	0.091	
